Patent publication US20220324943A1

Molecular target: VEGFA
Assay: sensorgram (SPR by the legend, axis in nm); FGFR1-CCD injected over immobilized VEGFA as null ligand

binding: no binding
B1: FGFR1-CCD fusion protein (receptor)
chain: RPSPTLPEQAQPWGAPVEVESFLVHPGDLLQLRCRLRDDVQSINWLRDGVQLAESNRTRITGEEVEVQDSVPADSGLYACVTSSPSGSDTTYFSVNVSDALPSSEDDDDDDDSSSEEKETDNTKPNPVAPYWTSPEKMEKKLHAVPAAKTVKFKCPSSGTPNPTLRWLKNGKEFKPDHRIGGYKVRYATGSIIMDSVVPSDKGNYTCIVENEYGSINHTYQLDVVERSPHRPILQAGLPANKTVALGSNVEFMCKVYSDPQPHIQWLKHIEVNGSKIGPDNLPYVQILKTAGVNTTDKEMEVLHLRNVSFEDAGEYTCLAGNSIGLSHHSAWLTVLEALEERPAVMLKEFMGYQGPPGPPGPPGIPGNHGNNGNNGATGHEGAKGEKGDKGDLGPRGERGQHGPKGEKGYPGIPGYCGPPGPPGPPGIPGNHGNNGNNGATGHEGAKGEKGDKGDLGPRGERGQHGPKGEKGYPGIPDYKDDDDKLQISSTVAAAHHHHHHV

No constants are given. Whether binding was seen depends on the method and setting. Where a sequence is shown, tags or fusion partners need not be part of it.
